# Results as given in the supplement of paper PMC12067093, “Discovery and optimisation of a covalent ligand for TRIM25 and its application to targeted protein ubiquitination” (Chemical Science, 2025).
# Sequences of proteins named here, by UniProt entry; tags and fusion partners are left off. A change or cut given only in a name is not applied to a line headed by its entry.
# UniProt Q16531, whole entry, looked up: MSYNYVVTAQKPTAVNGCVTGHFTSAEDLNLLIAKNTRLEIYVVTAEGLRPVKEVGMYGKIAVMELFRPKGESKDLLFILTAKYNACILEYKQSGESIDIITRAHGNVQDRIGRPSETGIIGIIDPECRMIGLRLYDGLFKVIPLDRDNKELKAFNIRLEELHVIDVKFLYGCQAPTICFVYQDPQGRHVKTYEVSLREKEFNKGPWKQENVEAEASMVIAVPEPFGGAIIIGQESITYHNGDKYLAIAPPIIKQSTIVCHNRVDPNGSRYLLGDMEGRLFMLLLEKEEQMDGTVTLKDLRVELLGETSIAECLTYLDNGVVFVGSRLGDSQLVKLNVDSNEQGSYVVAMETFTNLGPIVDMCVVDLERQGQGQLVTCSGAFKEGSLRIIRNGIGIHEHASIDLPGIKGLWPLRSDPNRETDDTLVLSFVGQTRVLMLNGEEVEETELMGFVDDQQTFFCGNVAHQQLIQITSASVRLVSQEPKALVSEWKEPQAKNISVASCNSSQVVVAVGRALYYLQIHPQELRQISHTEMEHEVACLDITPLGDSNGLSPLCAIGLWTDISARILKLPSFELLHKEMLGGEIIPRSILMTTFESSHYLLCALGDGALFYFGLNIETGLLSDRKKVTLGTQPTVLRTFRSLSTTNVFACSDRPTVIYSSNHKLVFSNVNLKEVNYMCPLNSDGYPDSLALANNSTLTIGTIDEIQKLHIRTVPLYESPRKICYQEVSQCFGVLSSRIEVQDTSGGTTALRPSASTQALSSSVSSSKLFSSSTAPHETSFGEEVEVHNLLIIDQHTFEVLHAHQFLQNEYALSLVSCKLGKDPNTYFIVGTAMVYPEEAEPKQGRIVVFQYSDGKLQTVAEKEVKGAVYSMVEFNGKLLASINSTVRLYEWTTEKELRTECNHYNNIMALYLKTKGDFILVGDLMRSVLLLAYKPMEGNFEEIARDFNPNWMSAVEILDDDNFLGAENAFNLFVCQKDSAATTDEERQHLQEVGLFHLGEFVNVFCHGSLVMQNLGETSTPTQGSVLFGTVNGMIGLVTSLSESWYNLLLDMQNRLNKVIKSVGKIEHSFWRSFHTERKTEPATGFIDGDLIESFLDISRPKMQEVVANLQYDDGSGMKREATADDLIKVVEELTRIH
# UniProt Q7Z401: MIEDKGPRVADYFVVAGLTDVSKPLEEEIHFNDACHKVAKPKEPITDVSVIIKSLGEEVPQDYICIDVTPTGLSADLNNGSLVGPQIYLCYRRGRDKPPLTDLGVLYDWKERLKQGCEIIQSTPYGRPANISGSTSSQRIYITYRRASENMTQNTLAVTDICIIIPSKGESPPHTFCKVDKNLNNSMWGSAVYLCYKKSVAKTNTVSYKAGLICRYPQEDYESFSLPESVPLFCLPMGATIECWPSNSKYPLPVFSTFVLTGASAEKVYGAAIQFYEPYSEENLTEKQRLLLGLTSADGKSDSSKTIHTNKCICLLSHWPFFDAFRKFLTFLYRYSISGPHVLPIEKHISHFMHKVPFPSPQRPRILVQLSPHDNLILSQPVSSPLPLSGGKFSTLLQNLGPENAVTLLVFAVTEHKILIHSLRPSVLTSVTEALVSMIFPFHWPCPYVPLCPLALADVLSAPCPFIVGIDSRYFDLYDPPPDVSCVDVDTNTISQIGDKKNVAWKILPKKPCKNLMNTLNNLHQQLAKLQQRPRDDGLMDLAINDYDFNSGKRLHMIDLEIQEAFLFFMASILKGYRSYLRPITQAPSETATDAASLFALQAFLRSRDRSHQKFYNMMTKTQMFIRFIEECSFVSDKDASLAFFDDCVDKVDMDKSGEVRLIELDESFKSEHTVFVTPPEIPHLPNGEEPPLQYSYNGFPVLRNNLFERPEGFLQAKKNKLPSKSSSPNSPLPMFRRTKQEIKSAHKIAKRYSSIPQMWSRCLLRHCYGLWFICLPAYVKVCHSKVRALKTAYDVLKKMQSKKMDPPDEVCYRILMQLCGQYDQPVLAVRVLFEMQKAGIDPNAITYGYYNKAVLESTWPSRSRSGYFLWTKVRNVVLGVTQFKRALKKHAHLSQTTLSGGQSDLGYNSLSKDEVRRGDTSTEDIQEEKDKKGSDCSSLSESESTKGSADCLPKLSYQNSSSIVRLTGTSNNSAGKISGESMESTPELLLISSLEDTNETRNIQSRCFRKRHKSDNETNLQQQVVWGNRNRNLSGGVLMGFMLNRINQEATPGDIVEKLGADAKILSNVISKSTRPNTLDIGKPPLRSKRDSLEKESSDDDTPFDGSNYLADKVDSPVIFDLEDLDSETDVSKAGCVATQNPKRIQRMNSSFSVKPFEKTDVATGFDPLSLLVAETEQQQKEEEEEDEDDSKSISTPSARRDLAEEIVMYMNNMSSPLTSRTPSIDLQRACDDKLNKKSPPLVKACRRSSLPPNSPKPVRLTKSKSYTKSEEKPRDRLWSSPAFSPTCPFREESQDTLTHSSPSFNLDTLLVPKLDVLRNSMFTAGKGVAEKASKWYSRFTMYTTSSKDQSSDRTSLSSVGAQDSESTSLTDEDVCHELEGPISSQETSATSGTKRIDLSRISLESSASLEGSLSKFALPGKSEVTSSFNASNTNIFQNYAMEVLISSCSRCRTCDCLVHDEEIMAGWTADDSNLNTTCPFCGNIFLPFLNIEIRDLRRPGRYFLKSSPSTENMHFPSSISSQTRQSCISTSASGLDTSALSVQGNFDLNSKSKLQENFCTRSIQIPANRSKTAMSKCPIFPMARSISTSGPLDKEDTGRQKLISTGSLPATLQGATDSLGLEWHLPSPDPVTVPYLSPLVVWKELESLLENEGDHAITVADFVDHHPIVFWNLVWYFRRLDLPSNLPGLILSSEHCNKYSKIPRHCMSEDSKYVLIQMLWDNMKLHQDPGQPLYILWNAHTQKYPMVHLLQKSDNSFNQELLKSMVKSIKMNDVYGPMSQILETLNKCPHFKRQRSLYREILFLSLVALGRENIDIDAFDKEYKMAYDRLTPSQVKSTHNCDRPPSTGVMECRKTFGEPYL
# UniProt Q9GZR7: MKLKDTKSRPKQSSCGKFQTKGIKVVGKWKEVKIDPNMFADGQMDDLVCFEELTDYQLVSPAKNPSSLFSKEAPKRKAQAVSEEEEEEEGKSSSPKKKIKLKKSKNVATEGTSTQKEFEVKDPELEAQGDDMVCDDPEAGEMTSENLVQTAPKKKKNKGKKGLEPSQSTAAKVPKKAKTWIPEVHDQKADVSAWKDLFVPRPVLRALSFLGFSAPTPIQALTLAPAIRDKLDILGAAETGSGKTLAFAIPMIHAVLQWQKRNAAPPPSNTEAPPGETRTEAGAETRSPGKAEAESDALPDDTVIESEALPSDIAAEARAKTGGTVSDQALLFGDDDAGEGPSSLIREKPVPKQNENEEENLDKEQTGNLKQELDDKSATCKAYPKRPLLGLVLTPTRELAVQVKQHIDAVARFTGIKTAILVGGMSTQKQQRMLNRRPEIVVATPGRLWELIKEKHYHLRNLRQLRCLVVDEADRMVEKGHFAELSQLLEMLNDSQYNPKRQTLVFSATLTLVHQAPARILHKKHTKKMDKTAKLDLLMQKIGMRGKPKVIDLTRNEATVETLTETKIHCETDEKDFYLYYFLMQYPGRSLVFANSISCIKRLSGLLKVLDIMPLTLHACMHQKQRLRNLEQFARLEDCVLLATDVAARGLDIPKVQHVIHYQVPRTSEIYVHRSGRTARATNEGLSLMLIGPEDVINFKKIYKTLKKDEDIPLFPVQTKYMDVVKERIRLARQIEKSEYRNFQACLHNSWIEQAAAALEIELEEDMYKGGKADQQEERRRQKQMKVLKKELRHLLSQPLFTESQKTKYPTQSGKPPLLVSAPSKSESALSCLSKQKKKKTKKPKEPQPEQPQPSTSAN
# UniProt Q9BQ39: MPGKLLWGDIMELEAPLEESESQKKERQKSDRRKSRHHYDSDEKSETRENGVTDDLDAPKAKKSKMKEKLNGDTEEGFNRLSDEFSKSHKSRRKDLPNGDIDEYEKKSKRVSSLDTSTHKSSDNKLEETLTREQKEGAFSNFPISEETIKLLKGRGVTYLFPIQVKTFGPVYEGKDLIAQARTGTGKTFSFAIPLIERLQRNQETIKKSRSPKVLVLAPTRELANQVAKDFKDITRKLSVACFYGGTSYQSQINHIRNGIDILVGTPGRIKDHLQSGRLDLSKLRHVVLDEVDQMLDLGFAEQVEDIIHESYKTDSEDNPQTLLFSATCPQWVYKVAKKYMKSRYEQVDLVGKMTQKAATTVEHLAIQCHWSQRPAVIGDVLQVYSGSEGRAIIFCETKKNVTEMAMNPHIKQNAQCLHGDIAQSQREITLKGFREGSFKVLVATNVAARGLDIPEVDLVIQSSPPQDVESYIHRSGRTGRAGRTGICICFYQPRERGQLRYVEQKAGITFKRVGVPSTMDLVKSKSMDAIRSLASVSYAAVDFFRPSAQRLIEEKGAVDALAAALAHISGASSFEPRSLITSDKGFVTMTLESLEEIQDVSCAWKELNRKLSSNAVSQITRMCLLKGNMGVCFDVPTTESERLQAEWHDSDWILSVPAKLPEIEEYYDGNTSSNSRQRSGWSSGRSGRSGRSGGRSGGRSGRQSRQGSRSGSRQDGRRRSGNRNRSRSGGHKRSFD
# UniProt Q9UHI6: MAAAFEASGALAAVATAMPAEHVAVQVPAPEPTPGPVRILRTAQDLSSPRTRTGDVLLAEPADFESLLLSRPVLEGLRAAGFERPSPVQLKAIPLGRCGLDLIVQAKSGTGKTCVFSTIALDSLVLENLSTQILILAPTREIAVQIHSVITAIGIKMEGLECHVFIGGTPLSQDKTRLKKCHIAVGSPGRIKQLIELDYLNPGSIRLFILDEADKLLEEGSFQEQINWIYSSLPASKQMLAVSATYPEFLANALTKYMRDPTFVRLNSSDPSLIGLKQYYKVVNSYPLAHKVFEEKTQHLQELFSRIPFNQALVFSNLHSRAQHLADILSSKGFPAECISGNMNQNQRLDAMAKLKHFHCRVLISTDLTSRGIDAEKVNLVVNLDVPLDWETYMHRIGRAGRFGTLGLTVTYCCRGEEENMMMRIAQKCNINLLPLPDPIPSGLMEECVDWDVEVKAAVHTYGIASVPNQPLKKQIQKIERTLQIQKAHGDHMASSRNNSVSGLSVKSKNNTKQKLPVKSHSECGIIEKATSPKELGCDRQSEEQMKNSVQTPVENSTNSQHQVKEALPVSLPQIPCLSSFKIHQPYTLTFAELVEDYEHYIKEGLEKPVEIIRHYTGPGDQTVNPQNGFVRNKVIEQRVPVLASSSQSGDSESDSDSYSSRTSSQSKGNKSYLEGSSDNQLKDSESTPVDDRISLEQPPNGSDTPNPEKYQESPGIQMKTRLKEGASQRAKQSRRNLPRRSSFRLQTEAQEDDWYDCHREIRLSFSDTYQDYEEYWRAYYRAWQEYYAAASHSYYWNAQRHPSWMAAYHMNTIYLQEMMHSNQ
# UniProt P26196: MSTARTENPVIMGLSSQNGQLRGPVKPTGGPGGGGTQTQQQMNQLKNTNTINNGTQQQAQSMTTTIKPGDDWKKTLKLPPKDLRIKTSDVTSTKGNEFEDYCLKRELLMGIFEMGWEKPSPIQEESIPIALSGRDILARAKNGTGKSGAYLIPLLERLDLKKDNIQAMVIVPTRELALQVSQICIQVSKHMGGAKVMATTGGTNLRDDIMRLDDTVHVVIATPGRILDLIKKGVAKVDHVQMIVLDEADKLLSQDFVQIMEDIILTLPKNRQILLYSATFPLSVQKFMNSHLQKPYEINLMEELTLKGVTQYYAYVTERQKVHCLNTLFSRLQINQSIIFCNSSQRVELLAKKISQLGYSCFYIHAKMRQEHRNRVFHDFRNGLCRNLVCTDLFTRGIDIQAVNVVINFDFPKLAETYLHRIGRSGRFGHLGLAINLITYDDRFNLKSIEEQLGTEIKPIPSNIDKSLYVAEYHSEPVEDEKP
# UniProt Q9H4E7, whole entry, looked up: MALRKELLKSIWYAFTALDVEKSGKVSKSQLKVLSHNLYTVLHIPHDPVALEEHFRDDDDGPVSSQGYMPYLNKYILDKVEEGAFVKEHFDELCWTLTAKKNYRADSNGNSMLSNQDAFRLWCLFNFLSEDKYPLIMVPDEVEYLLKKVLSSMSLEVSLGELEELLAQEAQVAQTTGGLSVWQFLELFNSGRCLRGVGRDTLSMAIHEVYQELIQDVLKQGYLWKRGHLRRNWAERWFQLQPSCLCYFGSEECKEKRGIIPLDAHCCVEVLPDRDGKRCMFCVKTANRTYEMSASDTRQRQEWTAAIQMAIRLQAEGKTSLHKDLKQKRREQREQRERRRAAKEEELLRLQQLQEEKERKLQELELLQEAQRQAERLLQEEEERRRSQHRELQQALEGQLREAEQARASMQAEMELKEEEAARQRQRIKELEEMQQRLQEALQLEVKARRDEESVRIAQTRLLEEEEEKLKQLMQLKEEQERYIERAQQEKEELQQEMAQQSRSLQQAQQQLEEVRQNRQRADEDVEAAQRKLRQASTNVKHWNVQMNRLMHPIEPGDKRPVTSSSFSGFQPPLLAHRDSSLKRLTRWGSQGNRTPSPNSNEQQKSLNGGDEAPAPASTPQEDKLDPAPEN
# The other results are listed elsewhere or left out.
# Compound: CC1Cc2ccccc2N1C(=O)C1CCCN(C1)C(=O)CCl (mixture of isomers) [TRIM25 ligand 11 (diastereomer mixture)]
# Experiment: probe-labelled cysteine peptide fold change vs DMSO (competition) (log2 fold change); higher = less target engagement (more negative = stronger competition)
# Conditions: THP-1, incubation time: 4 h
# 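Note: competitive chemoproteomic profiling in live THP-1 cells with an iodoacetamide desthiobiotin (IA-DTB) probe, comparing probe-labelled peptide intensities in compound-treated cells against DMSO-treated controls.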
Target,probe-labelled cysteine peptide fold change (10 µM),probe-labelled cysteine peptide fold change (50 µM)
DDX42_Q86XP3_281_KSEYTQPTPIQCQGVPVALSGR (UniProt Q86XP3),-0.13,-0.213
DDX39A_O00148_74_AIVDCGFEHPSEVQHECIPQAILGMDVLCQAK (UniProt O00148),-0.0326,0.112
DDB1_Q16531_725_KICYQEVSQCFGVLSSR (UniProt Q16531),-0.0766,-0.201
DDX21_Q9NR30_445_TIIFCETKK (UniProt Q9NR30),-0.00375,0.102
DENND4A_Q7Z401_952_GSADCLPK (UniProt Q7Z401),-0.0509,-0.0718
DDX17_Q92841_166_GGDVCPKPVFAFHHANFPQYVMDVLMDQHFTEPTPIQCQGFPLALSGR (UniProt Q92841),-0.298,-0.323
DDX1_Q92499_406_RLQVIVCSATLHSFDVK (UniProt Q92499),-0.12,0.0785
DDX21_Q9NR30_291_KLSVACFYGGTPYGGQFER (UniProt Q9NR30),-0.472,-0.15
DENND3_A2RUS2_61_EDCVHFLVLTDVCGNR (UniProt A2RUS2),0.0659,0.04
DDX24_Q9GZR7_639_LEDCVLLATDVAAR (UniProt Q9GZR7),0.0579,0.0986
DDX17_Q92841_447_RDGWPAMCIHGDK (UniProt Q92841),-0.122,-0.265
DENR_O43583_44_VLYCGVCSLPTEYCEYMPDVAK (UniProt O43583),-0.0798,-0.0802
DDX28_Q9NUL7_453_DILLCTDIASR (UniProt Q9NUL7),0.0908,0.0393
DCXR_Q7Z4W1_150_AVTNHSVYCSTK (UniProt Q7Z4W1),0.0419,0.15
DDX59_Q5T1V6_208_QQLGILVQGQEVTRPIIDFEHCSLPEVLNHNLK (UniProt Q5T1V6),-0.0333,-0.158
DDB1_Q16531_128_IGRPSETGIIGIIDPECR (UniProt Q16531),-0.0106,0.0343
DGKZ_Q13574_713_IQDLKPQCVVFLNIPR (UniProt Q13574),-0.0674,0.057
DENND3_A2RUS2_1094_DTSTSFLAFQLLPEEEQLWAACAGR (UniProt A2RUS2),1.22,-0.0979
DEPDC7_Q96QD5_65_HNDCFVGSEAVDVIFSHLIQNK (UniProt Q96QD5),0.0886,0.0289
DEPDC5_O75140_416_SQLFCNSFTPR (UniProt O75140),-0.0569,-0.00573
DDX10_Q13206_196_INNINILVCTPGR (UniProt Q13206),-0.0017,0.0569

Target,probe-labelled cysteine peptide fold change (10 µM),probe-labelled cysteine peptide fold change (50 µM)
DDX50_Q9BQ39_633_GNMGVCFDVPTTESER (UniProt Q9BQ39),0.183,-0.0499
DDB1_Q16531_378_QGQGQLVTCSGAFK (UniProt Q16531),0.0987,0.102
DDX41_Q9UJV9_338_KMVSLDICR (UniProt Q9UJV9),-0.313,-0.203
DDX3Y_O15523_62_DSSGWSCSK (UniProt O15523),-0.337,-0.331
DDB2_Q92466_322_VYSASQWDCPLGLIPHPHR (UniProt Q92466),0.0907,-0.0149
DDX60L_Q5H9U9_502_CHVDEQSR (UniProt Q5H9U9),-0.013,-0.526
DESI1_Q6ICB0_108_GEAYNLFEHNCNTFSNEVAQFLTGR (UniProt Q6ICB0),0.192,-0.119
DGKZ_Q13574_905_WCFLDATTASR (UniProt Q13574),0.042,0.0491
DDX51_Q8N8A6_187_WLAEPNCVR (UniProt Q8N8A6),-0.0896,-0.0751
DDX54_Q8TDD1_73_KLGPGRPLPTFPTSECTSDVEPDTR (UniProt Q8TDD1),-0.0758,-0.129
DECR1_Q16698_116_VHAIQCDVRDPDMVQNTVSELIK (UniProt Q16698),0.00711,0.0301
DDX20_Q9UHI6_181_CHIAVGSPGR (UniProt Q9UHI6),0.0244,0.0669
DDX1_Q92499_571_FLICTDVAAR (UniProt Q92499),0.0469,0.0863
DENND4C_Q5VZ89_955_MQTEEVCDASAIVAK (UniProt Q5VZ89),0.0406,-0.139
DGKQ_P52824_171_QCHQDGHQDHDTHHHHWR (UniProt P52824),0.225,0.0308
DGKH_Q86XP1_1014_ICDAATIHCLLEQELAHAVNACSHALNK (UniProt Q86XP1),0.0915,-0.00443
DDX59_Q5T1V6_208_QQLGILVQGQEVTRPIIDFEHCSLPEVLNHNLKK (UniProt Q5T1V6),-0.239,-0.182
DDX41_Q9UJV9_568_VPPVLQVLHCGDESMLDIGGER (UniProt Q9UJV9),0.141,-0.103
DDX5_P17844_221_GVEICIATPGR (UniProt P17844),-0.0686,0.323
DDHD2_O94830_207+227_RGVENISVDIHCGEPLQIDHLVFVVHGIGPACDLR (UniProt O94830),0.139,-0.104
DDX1_Q92499_542_GHQFSCVCLHGDR (UniProt Q92499),0.0203,0.031

Target,probe-labelled cysteine peptide fold change (10 µM),probe-labelled cysteine peptide fold change (50 µM)
DDX60_Q8IY21_857_HDALNCQVLITVPACFEILLLAPHR (UniProt Q8IY21),-0.153,0.221
DDX31_Q9H8H2_660_MEDILCVLTR (UniProt Q9H8H2),-0.0234,-0.0546
DGCR8_Q8WYQ5_91_LLIDPNCSGHSPR (UniProt Q8WYQ5),-0.00329,0.0865
DGLUCY_Q7Z3D6-2_165_TTVPCVTHAGFCCPLVVTMRPIPK (UniProt Q7Z3D6),-0.0708,-0.0407
DDX20_Q9UHI6_162_MEGLECHVFIGGTPLSQDK (UniProt Q9UHI6),0.107,0.374
DENND3_A2RUS2_1174_TLCSAEDRYVLSGSGR (UniProt A2RUS2),-0.113,-0.0819
DDX46_Q7L014_501_RGAEIIVCTPGR (UniProt Q7L014),0.161,0.296
DDAH1_O94760_222_LTVPDDIAANCIYLNIPNK (UniProt O94760),-0.16,0.0797
DDX60L_Q5H9U9_1449_GLFHNLCK (UniProt Q5H9U9),-0.193,0.241
DDX56_Q9NY93_185_SLLCHLPR (UniProt Q9NY93),0.556,0.332
DDX23_Q9BUQ8_519_MGCEIVIATPGR (UniProt Q9BUQ8),0.21,0.19
DDX6_P26196_361_KISQLGYSCFYIHAK (UniProt P26196),-0.0327,0.083
DDX1_Q92499_122_EWHGCR (UniProt Q92499),-0.0432,-0.0243
DGKZ_Q13574_876_EASVPLGTVVVPGDSDLELCR (UniProt Q13574),0.514,0.581
DGKZ_Q13574_330_IVVHTPCIEQLEK (UniProt Q13574),0.184,-0.058
DENND4A_Q7Z401_648_DASLAFFDDCVDKVDMDK (UniProt Q7Z401),-0.0956,-0.12
DENND4A_Q7Z401_35_PLEEEIHFNDACHK (UniProt Q7Z401),0.118,0.123
DDX39A_O00148_299_CMALAQLLVEQNFPAIAIHR (UniProt O00148),-0.153,0.0933
DDX31_Q9H8H2_624_IGCHGSSLLILAPSEAEYVNSLASHK (UniProt Q9H8H2),0.102,-0.251
DDX1_Q92499_519_IDCDNLEQYFIQQGGGPDKK (UniProt Q92499),0.0188,-0.0204
DCUN1D5_Q9BTE7_117_GMTSLQCDCTEK (UniProt Q9BTE7),-0.0398,0.0636

Target,probe-labelled cysteine peptide fold change (10 µM),probe-labelled cysteine peptide fold change (50 µM)
DDX60L_Q5H9U9_1671_DFAFNIQAISDSLSELCENKR (UniProt Q5H9U9),0.195,0.494
DDX50_Q9BQ39_417_QNAQCLHGDIAQSQR (UniProt Q9BQ39),0.0732,-0.163
DDX54_Q8TDD1_365_VSCAHIYSALDPTAR (UniProt Q8TDD1),0.209,0.138
DDX5_P17844_170_TLSYLLPAIVHINHQPFLERGDGPICLVLAPTR (UniProt P17844),0.109,0.271
DENND3_A2RUS2_919_LWCALSEGK (UniProt A2RUS2),0.243,0.0981
DEF6_Q9H4E7_266_RGIIPLDAHCCVEVLPDRDGK (UniProt Q9H4E7),0.117,0.347
DDX21_Q9NR30_445_TIIFCETK (UniProt Q9NR30),0.124,0.214
DDX42_Q86XP3_382_ALQEGAEIVVCTPGR (UniProt Q86XP3),0.0737,0.0996
DENND1B_Q6P3S1_52_FCFPFDVER (UniProt Q6P3S1),0.0197,0.0824
DERA_Q9Y315_118_AAGCNIPVASVAAGFPAGQTHLK (UniProt Q9Y315),0.0276,0.101
DCUN1D4_Q92564_253_DQWCNVLEFSR (UniProt Q92564),0.0408,-0.0279
DENND4B_O75064_636_LYSQLLHTQMFSQFIEECSFGSAR (UniProt O75064),0.237,0.0689
DDX24_Q9GZR7_570_IHCETDEK (UniProt Q9GZR7),0.225,0.0934
DECR2_Q9NUI1_22_HLFCPDLLR (UniProt Q9NUI1),0.0413,-0.0816
DDX5_P17844_320_DYIHINIGALELSANHNILQIVDVCHDVEKDEK (UniProt P17844),-0.181,-0.191
DEF6_Q9H4E7_267_RGIIPLDAHCCVEVLPDRDGK (UniProt Q9H4E7),0.0111,0.222
DDX6_P26196_361_ISQLGYSCFYIHAK (UniProt P26196),0.0377,0.268
DDX3X_O00571_223_RDLMACAQTGSGK (UniProt O00571),-0.0404,-0.163
DDX18_Q9NVP1_407_ANATVDGLEQGYVVCPSEK (UniProt Q9NVP1),0.122,0.257
